Literature values in patent US20040167220A1, “Environmentally safe fungicide and bactericide formulations” (priority 2003, published 2004).
Some results were stated once for a whole list of compounds, not compound by compound.

Tested on: powdery mildew on spring barley
Details: used alone at concentrations of 0.03% to 0.23%; cited from earlier work

## O=S([O-])S(=O)(=O)[O-].[Na+].[Na+] [sodium metabisulfite]
  reduction of powdery mildew on spring barley: 25 to 40%
